# Test results: PubChem BioAssay AID624297 (National Center for Advancing Translational Sciences (NCATS), 2012)
# Hit rate of the full screen: of about 340,000 compounds, about 6,200 (1.8%) were called active. The inconclusive results got no clear call from the source; some entries with a clear call stand among them for comparison. Calls come from the whole dose curve; as a rule, active = well fitted activation curve with a large enough effect; inconclusive = small, poorly fitted or top-dose-only effect; inactive = no such curve, though single readings can be large or run the other way. Where the call is inconclusive, the potency comes from a doubtful curve fit. More than one record can exist for a structure, and the calls need not agree.
# Experiment: A quantitative high throughput screen for small molecules that induce DNA re-replication in SW480 colon adenocarcinoma cells. For re-replication activation: % of control where 0% means no effect. Note: nearly all actives have a fitted effect of over 55% in size.
# Details: Hoechst DNA content imaging, 48 h; re-replication activation: at 46.1 µM (top of the series) unless noted
# Procedure, shortened: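 Cells (250 per well) received 23 nL compound or DMSO by pin tool and were kept 48 hr at 37 C, 5% CO2. Nuclei were then stained with Hoechst for 40 min and scanned for DNA content.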
# Potency is the fitted concentration of half-maximal effect.
Structure (SMILES),re-replication activation,Potency
CCOC(=O)c1ccccc1NC(=O)COC(=O)CCNS(=O)(=O)c1ccccc1,inactive: -2.98%,
CCN(CC)c1ccc(NC(=O)c2cccnc2)c(C)c1,,"inconclusive: 18.4 µM [activator, single point]"
CCOC(=O)C1=CC[C@H]2c3c(c4ccc(OC)cc4n3C)C(=O)C1N2S(=O)(=O)c1ccc(C)cc1,,"inconclusive: 29.1 µM [activator, single point]"
CCN(C(=O)COC(=O)CNS(=O)(=O)c1ccc2ccccc2c1)C1CCCCC1,,"inconclusive: 29.1 µM [activator, single point]"
Cc1nn(Cc2c(F)c(F)c(F)c(F)c2F)c(C)c1NC(=O)c1ccc(COc2ccc(Cl)cc2Cl)o1,,"inconclusive: 18.4 µM [activator, single point]"
NS(=O)(=O)c1cc(-c2nn[nH]n2)c(NCc2cccs2)cc1Cl,inactive: 3.02%,
CCCCCCCCc1nc(=S)[nH][nH]1,inactive: 3.4%,
CN(CC(=O)Nc1ccc(F)cc1)C(=O)COC(=O)/C=C/c1ccc(OC(F)F)cc1,inactive: -4.92%,
O=S(=O)(c1cnc(Cl)c(Br)c1)N1CCc2ccccc21,,"inconclusive: 29.1 µM [activator, single point]"
Cc1ccn2cc(C(=O)Nc3ccc4c(c3)OCCO4)nc2c1,,"inconclusive: 29.1 µM [activator, single point]"
Cc1cc(C)nc(NC(=O)c2cc(-c3ccc(C)s3)nc3ccccc23)c1,,"inconclusive: 35.5 µM [activator, single point]"
N#Cc1ccccc1NC(=O)CSc1nnc(-c2ccccc2O)n1-c1ccccc1,,"inconclusive: 11.6 µM [activator, single point]"
COc1ccc(-c2noc(CCC(=O)NCCCN3CCC(Cc4ccccc4)CC3)n2)cc1,,"inconclusive: 29.1 µM [activator, single point]"
CCOC(=O)C1=CC[C@]2(C)c3c(c4ccccc4n3C)C(=O)C1N2C,inactive: -3.77%,
COc1ccc(NC(=O)CN(C)Cc2c(F)cccc2Cl)cc1S(=O)(=O)N1CCCCC1,inactive: 1.42%,
Cc1ccc(OCc2nnc(SCC(=O)c3ccccc3)n2Cc2ccco2)cc1,,"inconclusive: 29.1 µM [activator, partial curve, poor fit]"
CN(CC(=O)Nc1ccc2c(c1)OCO2)S(=O)(=O)c1cccs1,inactive: -107%,
CCn1nc(C)cc1-c1nnc(Sc2ncc([N+](=O)[O-])s2)n1C,inactive: 28.4%,
O=C(N/N=C/c1ccc(O)c2ncccc12)c1cccc(Br)c1,,"inconclusive: 6.51 µM [activator, partial curve, poor fit]"
O=C(CCNC(=O)c1ccccc1Cl)Nc1nc(-c2ccc(F)cc2)cs1,inactive: -6.02%,
CCOC(=O)c1c(NC(=O)c2ccn(CC)n2)sc2c1CCCC2,,"inconclusive: 29.1 µM [activator, partial curve, poor fit]"
Oc1ccc(Nc2nc(-c3cccnc3)cs2)cc1,,"inconclusive: 29.1 µM [activator, single point]"

Structure (SMILES),re-replication activation,Potency
CCn1c(C)[n+](CC)c2ccc(S(=O)(=O)N(C)C)cc21,,"inconclusive: 25.9 µM [activator, partial curve, poor fit]"
CCCCN(Cc1ccco1)S(=O)(=O)c1ccc(-c2ccc(=O)[nH]n2)s1,,"inconclusive: 8.2 µM [activator, partial curve]"
CCc1cccc2c(-c3csc(=NC)n3C)c[nH]c12,,"inconclusive: 25.9 µM [activator, single point]"
CN(C)CCN(C(=O)c1ccc2ccccc2c1)c1nc2c(F)cc(F)cc2s1,,"inconclusive: 14.6 µM [activator, single point]"
COc1ccc(C(C)=O)cc1COC(=O)c1ccc2ccccc2n1,inactive: 2.19%,
CCCCCCC(O)(c1ccc(OC)cc1)C(CN1CCOCC1)c1ccccc1 (stereo not drawn),,"inconclusive: 32.6 µM [activator, partial curve, poor fit]"
CC(C)Oc1ccccc1C1CC(=O)Nc2cc3c(cc21)OCO3 (stereo not drawn),,"inconclusive: 0.58 µM [activator, full curve, poor fit]"
COc1cc2c(cc1OC)C(C1C(=O)CC(C)CC1=O)N(C(=O)CCl)CC2 (stereo not drawn),,"inconclusive: 29.1 µM [activator, single point]"
CC=Cc1cc(OC)c2c(c1)C(C)C(c1ccc(O)c(OC)c1)O2 (stereo not drawn),inactive: 15%,
Cc1ccccc1NC(=O)NC1(C(=O)NCc2ccco2)CCCCC1,inactive: -4.34%,
CCc1cccc(C)c1NC(=O)CN1C(=O)c2ccccc2S1(=O)=O,inactive: 0.0909%,
CCc1nnc(NC(=O)[C@@H]2CCCN2S(=O)(=O)c2ccc3c(c2)OCCO3)s1,,"inconclusive: 13 µM [activator, partial curve, poor fit]"
COc1cc2ccc(=O)oc2c(O[C@@H]2O[C@H](CO)[C@@H](O)[C@H](O)[C@H]2O)c1O,,active: 8.2 µM
O=C(Nc1ccccc1N1CCN(C(=O)c2ccc(Cl)cc2)CC1)c1cc(Br)ccc1Cl,,"inconclusive: 0.461 µM [activator, full curve, poor fit]"
CN1CCN(c2ccc(NC(=O)c3ccc4c(c3)OCCO4)cc2)CC1,inactive: -7.51%,
Cc1nn(-c2ccc(Cl)cc2Cl)c(C)c1C(=O)O,inactive: 8.98%,
COc1ccc(Cl)cc1C(=O)Nc1ccc(NC(=O)c2ccco2)cc1,,"inconclusive: 29.1 µM [activator, single point]"
O=C(CCn1nc(-c2ccccc2)c2ccccc2c1=O)Nc1cccnc1,,"inconclusive: 32.6 µM [activator, partial curve, poor fit]"
Cc1ccc(CNC(=O)CCc2nnc(Cc3ccc(-c4ccccc4)cc3)o2)o1,,"inconclusive: 29.1 µM [activator, single point]"
CC(C)N(C(=O)[C@H]1CC(CC(=O)NCC23CC4CC(CC(C4)C2)C3)C(=O)N2CCc3c([nH]c4ccccc34)[C@]12C)C(C)C (stereo partly drawn),,"inconclusive: 2.59 µM [activator, single point]"
O=C(COC(=O)c1ccc(O)cc1)Nc1ccc(Cl)cc1,,"inconclusive: 29.1 µM [activator, single point]"

# Rewritten with bars between the fields: entries from further up.
Structure (SMILES) | re-replication activation | Potency
O=C(CCn1nc(-c2ccccc2)c2ccccc2c1=O)Nc1cccnc1 |  | inconclusive: 32.6 µM [activator, partial curve, poor fit]
Cc1ccc(CNC(=O)CCc2nnc(Cc3ccc(-c4ccccc4)cc3)o2)o1 |  | inconclusive: 29.1 µM [activator, single point]
